These are yes or no findings as the source states them, for the method shown. For some of these results: Binding calls can cover weak binding; strength is not graded here.
T1: human PTPδ Ig1-3(+/+) (human) (UniProt P23468)
T1 sequence: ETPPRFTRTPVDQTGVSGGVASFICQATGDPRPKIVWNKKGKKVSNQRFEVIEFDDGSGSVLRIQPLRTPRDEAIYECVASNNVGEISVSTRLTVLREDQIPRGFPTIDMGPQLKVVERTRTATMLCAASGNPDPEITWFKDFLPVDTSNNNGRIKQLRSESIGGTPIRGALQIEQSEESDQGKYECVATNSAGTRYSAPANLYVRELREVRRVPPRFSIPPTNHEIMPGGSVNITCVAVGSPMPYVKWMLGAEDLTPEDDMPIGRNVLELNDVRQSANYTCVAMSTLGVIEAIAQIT

By UniProt entry, the sequences of proteins in these tests, tags left out. Where a name states a change or a piece, a line headed by the entry shows the natural chain unless it says otherwise.
UniProt Q13332: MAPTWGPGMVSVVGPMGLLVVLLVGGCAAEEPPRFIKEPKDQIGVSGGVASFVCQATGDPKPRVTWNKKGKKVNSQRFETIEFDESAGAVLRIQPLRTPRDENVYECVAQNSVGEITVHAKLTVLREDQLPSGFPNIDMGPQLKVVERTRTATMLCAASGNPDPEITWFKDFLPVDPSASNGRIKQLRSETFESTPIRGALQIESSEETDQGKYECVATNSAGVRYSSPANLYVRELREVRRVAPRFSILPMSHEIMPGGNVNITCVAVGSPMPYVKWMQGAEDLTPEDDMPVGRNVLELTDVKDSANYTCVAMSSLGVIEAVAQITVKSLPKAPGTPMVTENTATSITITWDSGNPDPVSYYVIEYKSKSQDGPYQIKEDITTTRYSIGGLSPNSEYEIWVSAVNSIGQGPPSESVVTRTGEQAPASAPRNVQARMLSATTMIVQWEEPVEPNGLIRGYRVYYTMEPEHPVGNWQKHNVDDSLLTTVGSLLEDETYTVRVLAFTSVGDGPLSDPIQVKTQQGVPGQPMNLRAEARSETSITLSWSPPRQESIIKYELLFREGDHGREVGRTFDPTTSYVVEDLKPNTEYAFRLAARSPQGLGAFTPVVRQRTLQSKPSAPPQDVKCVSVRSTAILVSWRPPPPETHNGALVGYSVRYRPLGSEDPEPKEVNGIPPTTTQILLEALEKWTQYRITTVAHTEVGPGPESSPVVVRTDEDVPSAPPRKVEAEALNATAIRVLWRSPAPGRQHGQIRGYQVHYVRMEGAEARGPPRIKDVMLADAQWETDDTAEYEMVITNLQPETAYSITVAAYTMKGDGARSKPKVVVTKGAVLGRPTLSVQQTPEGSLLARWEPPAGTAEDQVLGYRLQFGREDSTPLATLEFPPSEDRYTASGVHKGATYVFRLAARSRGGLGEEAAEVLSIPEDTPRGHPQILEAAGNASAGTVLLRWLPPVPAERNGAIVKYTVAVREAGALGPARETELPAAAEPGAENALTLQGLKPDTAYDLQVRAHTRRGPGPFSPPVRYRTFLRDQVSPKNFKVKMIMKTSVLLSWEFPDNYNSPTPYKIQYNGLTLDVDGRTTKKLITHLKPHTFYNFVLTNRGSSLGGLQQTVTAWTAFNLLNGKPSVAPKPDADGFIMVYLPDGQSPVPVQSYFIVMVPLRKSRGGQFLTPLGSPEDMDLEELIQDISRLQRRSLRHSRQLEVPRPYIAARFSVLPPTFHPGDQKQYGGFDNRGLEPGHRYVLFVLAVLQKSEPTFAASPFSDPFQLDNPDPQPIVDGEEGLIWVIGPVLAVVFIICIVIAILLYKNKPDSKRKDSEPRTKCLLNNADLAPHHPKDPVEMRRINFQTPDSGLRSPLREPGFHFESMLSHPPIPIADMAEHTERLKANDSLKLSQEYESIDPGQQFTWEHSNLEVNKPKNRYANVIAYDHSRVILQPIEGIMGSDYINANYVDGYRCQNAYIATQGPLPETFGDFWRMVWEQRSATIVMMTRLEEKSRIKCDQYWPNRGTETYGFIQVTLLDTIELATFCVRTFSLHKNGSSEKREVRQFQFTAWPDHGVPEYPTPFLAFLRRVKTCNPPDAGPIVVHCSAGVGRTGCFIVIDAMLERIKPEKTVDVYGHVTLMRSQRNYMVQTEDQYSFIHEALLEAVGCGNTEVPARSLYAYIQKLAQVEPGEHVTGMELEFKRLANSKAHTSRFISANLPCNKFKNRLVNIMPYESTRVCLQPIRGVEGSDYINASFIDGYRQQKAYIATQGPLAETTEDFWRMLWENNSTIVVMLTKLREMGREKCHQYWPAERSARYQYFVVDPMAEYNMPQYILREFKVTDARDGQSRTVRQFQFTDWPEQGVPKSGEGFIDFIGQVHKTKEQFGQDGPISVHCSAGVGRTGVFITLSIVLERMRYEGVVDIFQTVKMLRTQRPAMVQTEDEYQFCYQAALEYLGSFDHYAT
UniProt Q9NPH3: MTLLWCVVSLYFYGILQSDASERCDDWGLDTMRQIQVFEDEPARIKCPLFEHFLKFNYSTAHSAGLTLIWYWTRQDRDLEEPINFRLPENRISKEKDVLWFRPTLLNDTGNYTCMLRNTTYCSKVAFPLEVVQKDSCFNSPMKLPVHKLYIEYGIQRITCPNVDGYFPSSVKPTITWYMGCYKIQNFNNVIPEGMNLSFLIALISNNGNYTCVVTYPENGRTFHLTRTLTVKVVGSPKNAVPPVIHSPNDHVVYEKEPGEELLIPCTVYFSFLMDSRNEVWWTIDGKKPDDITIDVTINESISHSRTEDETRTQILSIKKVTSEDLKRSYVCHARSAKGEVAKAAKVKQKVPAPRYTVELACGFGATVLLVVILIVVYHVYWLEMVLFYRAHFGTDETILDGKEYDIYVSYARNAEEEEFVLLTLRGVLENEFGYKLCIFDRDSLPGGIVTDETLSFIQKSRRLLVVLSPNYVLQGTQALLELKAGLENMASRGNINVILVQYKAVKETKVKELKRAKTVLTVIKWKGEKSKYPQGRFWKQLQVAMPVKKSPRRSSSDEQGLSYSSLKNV


Key:
[1] = target: T1, human PTPδ Ig1-3(+/+) (human); assay: condition: only with a 2-fold molar excess of heparan sulfate; SEC; with heparan sulfate: pre-formed complex incubated with a 2-fold molar excess of HS at 4°C for 3 h, or LAR-RPTP Ig1-3 pre-incubated with a 2-fold molar excess of HS and then with the partner; Superdex 200 10/300 GL, 10 mM Tris-HCl pH 8.0, 50 mM NaCl; both purified
[2] = target: T1, human PTPδ Ig1-3(+/+) (human); assay: SEC; partners incubated at a 1:1 molar ratio at 4°C for 3 h; Superdex 200 10/300 GL, 20 mM Tris-HCl pH 8.0, 50 mM NaCl; complex seen as forward shift of the peak, fractions on silver-stained SDS-PAGE; also pre-formed complexes with 2-fold molar excess of chondroitin sulfate; both purified
[3] = target: PTPσ Ig1-3(+/+) (UniProt Q13332); assay: condition: only with a 2-fold molar excess of heparan sulfate; SEC; with heparan sulfate: pre-formed complex incubated with a 2-fold molar excess of HS at 4°C for 3 h, or LAR-RPTP Ig1-3 pre-incubated with a 2-fold molar excess of HS and then with the partner; Superdex 200 10/300 GL, 10 mM Tris-HCl pH 8.0, 50 mM NaCl; both purified
[4] = target: PTPσ Ig1-3(+/+) (UniProt Q13332); assay: SEC; partners incubated at a 1:1 molar ratio at 4°C for 3 h; Superdex 200 10/300 GL, 20 mM Tris-HCl pH 8.0, 50 mM NaCl; complex seen as forward shift of the peak, fractions on silver-stained SDS-PAGE; also pre-formed complexes with 2-fold molar excess of chondroitin sulfate; both purified

binding [1]	binding [2]	binding [3]	binding [4]	Molecule
no binding	binds	–	–	IL-1RAcP Ig1-3 (from UniProt Q9NPH3) (domain or fragment)
–	–	no binding	binds	Slitrk1 LRR1 (domain or fragment, UniProt Q96PX8 20-264) TGDVCKEKICSCNEIEGDLHVDCEKKGFTSLQRFTAPTSQFYHLFLHGNSLTRLFPNEFANFYNAVSLHMENNGLHEIVPGAFLGLQLVKRLHINNNKIKSFRKQTFLGLDDLEYLQADFNLLRDIDPGAFQDLNKLEVLILNDNLISTLPANVFQYVPITHLDLRGNRLKTLPYEEVLEQIPGIAEILLEDNPWDCTCDLLSLKEWLENIPKNALIGRVVCEAPTRLQGKDLNETTEQDLCPLK
